Experimental findings from PubChem BioAssay AID493014 (National Center for Advancing Translational Sciences (NCATS), 2011) are described below.

Some of the results follow. Further columns of the screen follow, without active or inactive calls. The list favours compounds with an active or inconclusive main result. The note in brackets gives the kind of curve behind each potency; many fits are weak.

This experiment in a line: qHTS Assay to Find Inhibitors of Chronic Active B-Cell Receptor Signaling. Conditions: ABC-DLBCL IkBa-CBG/CBR reporter, luminescence ratio (green luciferase fused to IkBa over red control in TMD8 lymphoma cells), 4 h. In outline:
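Compounds up to 46 uM were incubated four hours with TMD8 cells whose green CBG68 luciferase is fused to IkappaBalpha; red CBR luminescence normalised the signal, and concentration-effect curves were fitted to fusion, red and ratio data.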
(qHTS replaces the single test concentration by a dilution series.)

The mark [1] stands for this setting: measured here: CBR red luminescence, cell number.
[2] abbreviates: measured here: IkBa-CBG green luminescence.

One may read the AC50 as the concentration giving half of the maximal activity seen. `Cc1ccc2cc3cc(C(=O)NCCC(C)C)oc3nc2c1`: the AC50 under setting [1] was 0.355 µM [rising, partial curve, poor fit].

As for `Cc1ccc(C)c(-n2cc(CN3CCCN(C=O)CC3)c(-c3ccccc3)n2)c1`, the AC50 under setting [1] is 6.31 µM [falling, single point].

`COc1cc(NC(=O)c2cc(-c3cccc(O)c3)on2)cc(OC)c1OC`: the AC50 under setting [2] is 11.2 µM [falling, partial curve, poor fit].

Take `Cc1ccc(-c2noc(CCCC(=O)NCC3CCCO3)n2)cc1` (configuration not stated): under setting [1], the AC50 was 35.5 µM [rising, single point].

On to `CCN(CC)CCn1c(=N)n(CC(O)COc2cccc(C)c2)c2ccccc21` (configuration not stated), for which the AC50 under setting [1] is 25.1 µM [falling, single point].

Take `C/C=C/c1ccc(OCC(=O)OCc2csc(Nc3ccc(C)cc3)n2)c(OC)c1`: the AC50 under setting [1] was 7.31 µM [rising, partial curve].

`Cc1cc(C(=O)CCl)c(C)n1CCc1ccc(F)cc1`: the AC50 under setting [1] is 22.4 µM [falling, partial curve].

Regarding `O=C(/C=C/c1ccco1)Nc1cccc(S(=O)(=O)N2CCOCC2)c1`, the AC50 under setting [1] is 7.31 µM [falling, partial curve].

With `O=C(COC(=O)c1ccccc1)c1ccc2c(c1)OCCO2`, the AC50 under setting [1] was 32.6 µM [falling, single point].

`CCOc1ccc(NC(=O)c2cccnc2Cl)c([N+](=O)[O-])c1`: the AC50 under setting [1] is 20.6 µM [rising, partial curve, poor fit].

As to `CC1CCCC(C)N1C(=O)COC(=O)COc1ccc(C#N)cc1` (configuration not stated), the AC50 under setting [1] was 0.651 µM [rising, full curve, poor fit].

On to `CCCCCCCNC(=O)CN1N=C(c2ccc(C)cc2)CCC1=O`, for which the AC50 under setting [1] is 5.62 µM [rising, single point].

Turning to `CC(C)(C)C(=O)CSc1nc2ccccc2o1`, the AC50 under setting [1] is 0.282 µM [rising, full curve, poor fit].

For `O=C(O)CC12CC3CC(C1)CC(n1ncc(N4CCC5(CC4)OCCO5)c(Cl)c1=O)(C3)C2`, under setting [1], the AC50 was 25.1 µM [falling, partial curve, poor fit].

As to `O=C(Nc1ccc(Br)cc1)c1ccc2ncsc2c1`, the AC50 under setting [1] was 7.94 µM [falling, partial curve].

Regarding `Cc1ccc2occ(/C=N/NC(=O)c3ccc(O)cc3)c(=O)c2c1`, the AC50 under setting [1] is 0.112 µM [falling, full curve, poor fit].

For `Cc1ccc(NC(=O)CSc2nnc3ccc(-c4cccnc4)nn23)cc1`, under setting [1], the AC50 was 5.8 µM [rising, partial curve, poor fit].

With `O=C(CC1OC(=O)c2ccccc21)NC1CCCCC1` (configuration not stated), the AC50 under setting [1] was 12.6 µM [falling, partial curve].

On to `COc1cc(NC(=O)c2ccco2)c(OC)cc1NC(=O)Nc1cccc(Cl)c1`, for which the AC50 is 35.5 µM [falling, single point] under setting [1] and 15.8 µM [rising, partial curve, poor fit] under setting [2].

Consider `C/[N+]([O-])=C/c1c(OCc2ccccc2)ccc2ccccc12`, for which, under setting [1], the AC50 is 3.16 µM [rising, partial curve, poor fit].

As for `CCCCOC(=O)c1ccc(NC(=O)CSc2nncn2C)cc1`, the AC50 under setting [1] was 2.24 µM [rising, full curve, poor fit].

For the molecule `C#CCOCCOCCOCCNc1nc(N2CCN(C(=O)CCCCCCCCCCNC(=O)[C@H](CCCCN)n3cc(C)nn3)CC2)nc(N2CCN(C(=O)CCCCCCCCCCNC(=O)[C@H](CCCN=C(N)N)n3cc(C[C@@H](C)CC)nn3)CC2)n1`, under setting [1], the AC50 was 3.26 µM [rising, partial curve, poor fit].

Take `O=C(/C=C/c1ccc(Br)o1)NC(c1ccccc1)c1ccccc1`: the AC50 under setting [1] is 23.1 µM [falling, single point].

In the case of `Cc1ccc(NC(=O)CSc2nc(=O)n(Cc3ccccn3)c3c2CCC3)cc1F`, the AC50 under setting [1] is 35.5 µM [falling, single point].

For `CC(C)c1nc(NCCN2CCOCC2)c(C#N)c2c1COC(C)(C)C2`, the AC50 under setting [1] was 1 µM [rising, full curve, poor fit].

With `COC(=O)C1=C(NC(=O)COc2ccc3ccccc3c2)CCS1`, under setting [1], the AC50 is 2.06 µM [falling, partial curve, poor fit].

`CCn1c2ccccc2c2cc(/C=N/NC(=O)c3ccccc3)ccc21`: the AC50 under setting [1] was 7.08 µM [falling, partial curve, poor fit].

On to `CC1(C)COC(/C=C/c2cccc([N+](=O)[O-])c2)=N1`, for which, under setting [1], the AC50 was 7.08 µM [falling, partial curve, poor fit].

For the molecule `COc1ccc(C2CC(c3c(-c4ccccc4)c4cc(Cl)ccc4[nH]c3=O)=NN2C(=O)CCC(=O)O)cc1` (configuration not stated), the AC50 under setting [1] was 35.5 µM [falling, single point].

Regarding `C=C(c1ccccc1)c1ccc(N(C)C)cc1`, the AC50 under setting [1] is 2.82 µM [falling, full curve, poor fit].

In the case of `Cn1c(=O)[nH]c(=O)c2c1nc(Br)n2CCCSc1nc2ccccc2o1`, the AC50 by setting is: under setting [1], 29.1 µM [falling, single point]; under setting [2], 23.1 µM [falling, single point].

For the molecule `COc1ccccc1/C=C/C(=O)/C=C/c1ccccc1O`, under setting [1], the AC50 was 11.2 µM [falling, partial curve, poor fit].

As to `CN(C(=O)c1ccccn1)c1nnc(-c2cnccn2)s1`, the concentration at half-maximal activity (AC50) under setting [1] was 2.51 µM [rising, full curve, poor fit].

For the molecule `CC(C)CNC(=O)Nc1ccccc1F`, the concentration at half-maximal activity (AC50) under setting [1] is 0.112 µM [rising, full curve, poor fit].

Turning to `COC(=O)c1ccsc1NC(=O)CSc1nnnn1Cc1ccccc1`, under setting [1], the AC50 was 5.8 µM [falling, partial curve, poor fit].

`Cc1c(C(=O)C(=O)NCc2ccco2)c2ccccc2n1C`: the AC50 under setting [1] was 2.51 µM [rising, partial curve, poor fit].

Take `Nc1nc(-c2ccc(Cl)cc2)nn1C(=O)c1cccs1`: the AC50 under setting [1] was 0.355 µM [falling, full curve, poor fit].

Turning to `CCOc1cc2c3c(c1)C1(OCCO1)C(=O)N3C(C)(C)CC2C` (configuration not stated), under setting [1], the AC50 was 6.51 µM [falling, single point].

`CC1(C)CC(=O)C=C(c2cccc(Cl)c2O)C1`: under setting [1], the AC50 was 10.3 µM [rising, partial curve, poor fit].

With `COC(=O)C1=CN(Cc2ccc(OC)c(OC)c2)C=C(C(=O)OC)C1c1cccc(O)c1`, the AC50 is, setting by setting: under setting [1], 1 µM [rising, full curve, poor fit]; under setting [2], 0.891 µM [falling, full curve].

On to `COc1ccc(-c2nc3cnccn3c2NC(C)(C)CC(C)(C)C)cc1O`, for which the AC50 under setting [1] is 35.5 µM [falling, single point].

With `CCOC(=O)Cc1csc(NC(=O)c2ccco2)n1`, the AC50 under setting [1] is 29.1 µM [falling, single point].

For the molecule `CCN=c1scc(-c2cccs2)n1/N=C/c1cc(OC)ccc1O`, the AC50 under setting [1] was 0.00517 µM [rising, full curve, poor fit].

In the case of `COc1ccccc1C1CCN(Cc2cccc3ccccc23)CC1`, under setting [1], the AC50 is 35.5 µM [rising, single point].

Turning to `OCC1(O)OC[C@@H](O)[C@H]1O` (some centres not stated), the AC50 under setting [1] was 2.82 µM [falling, partial curve, poor fit].

For the molecule `C=CCn1c(SCC(=O)N2CCN(CCO)CC2)nc2sc3c(c2c1=O)CCC3`, the AC50 under setting [1] is 14.1 µM [falling, partial curve, poor fit].

As to `CC(C)(C)NC(=O)CSC(=Nc1ccccc1F)NC#N`, the AC50 runs as follows: under setting [1], 13 µM [falling, partial curve, poor fit]; under setting [2], 25.9 µM [rising, partial curve, poor fit].

As for `CCCn1c(=O)c(C(=O)NCCCc2ccccc2)c(O)c2ccccc21`, the AC50 under setting [1] is 11.2 µM [rising, partial curve, poor fit].

As to `CCn1cc(/C=C(\NC(=O)c2ccccc2F)C(=O)NCCCN2CCOCC2)c2ccccc21`, under setting [1], the AC50 is 2.82 µM [falling, partial curve, poor fit].

`O=C(N/N=C\CCc1ccccc1)c1ccco1`: under setting [1], the AC50 was 18.4 µM [falling, partial curve, poor fit].

Turning to `NS(=O)(=O)c1cccc(-n2cnnn2)c1`, the AC50 under setting [1] was 3.16 µM [rising, partial curve, poor fit] and the AC50 under setting [2] was 6.31 µM [falling, single point].

With `Cc1[nH]c2ccccc2c1/C=N/Nc1nc(Nc2ccccc2)nc(N2CCOCC2)n1`, the AC50 under setting [1] is 3.55 µM [falling, full curve].

As for `CN1CCC(Oc2ccccc2Sc2ccc(C(F)(F)F)cc2)CC1`, the AC50 under setting [1] was 14.6 µM [falling, single point].

In the case of `N#C/C(=C\c1cccs1)c1nc2ccccc2[nH]1`, the AC50 under setting [1] is 29.1 µM [falling, single point].

`O=C(N/N=C/c1ccco1)c1cc(-c2cccs2)[nH]n1`: the AC50 under setting [1] was 10.3 µM [falling, partial curve].

On to `COC(=O)c1ccc2nc(C)cc(Nc3ccc(N(C)C)cc3)c2c1`, for which the AC50 under setting [1] was 5.17 µM [falling, full curve].

On to `CN(C)C(=O)c1ccc(NC(=O)COC(=O)Cn2cc(C(F)(F)F)ccc2=O)cc1`, for which the AC50 under setting [1] is 29.1 µM [rising, single point].

`COc1cc(/C=C2\SC(=S)N(CCC(=O)N3CCCCC3)C2=O)cc(OC)c1OC`: the AC50 under setting [1] was 10 µM [falling, partial curve].

In the case of `O=C(NC(Cc1ccccc1)C(=O)O)OCc1ccccc1` (configuration not stated), the AC50 under setting [1] was 5.01 µM [rising, full curve, poor fit].

For `Cc1cc(NS(=O)(=O)c2ccc(NC(=O)c3ccc(F)cc3)cc2)nc(C)n1`, under setting [1], the AC50 is 25.9 µM [rising, partial curve, poor fit].

On to `Cc1cc(C)c(S(=O)(=O)N(CC(=O)N2CCOCC2)C2CCCCC2)c(C)c1`, for which, under setting [1], the AC50 was 10.3 µM [rising, partial curve].

Take `Clc1ccc2nnnc(-c3ccccc3)c2c1`: the AC50 under setting [2] was 29.1 µM [falling, partial curve, poor fit].
